# The campaign covered roughly 320,000 compounds. About 22,000 (6.9%) were called active. This list was built around the results that the source calls inconclusive (neither active nor inactive); the mix of calls is not that of the screen. Calls come from the whole dose curve; as a rule, active = well fitted inhibition curve with a large enough effect; inconclusive = small, poorly fitted or top-dose-only effect, or another doubt; inactive = no such curve, though single readings can be large or run the other way. Where the call is inconclusive, the potency comes from a doubtful curve fit.
# Test: Primary qHTS for delayed death inhibitors of the malarial parasite plastid, 96 hour incubation
# Conditions: P. falciparum luciferase reporter growth; series mostly up to 28.7 µM; activity change, negative = inhibition: at the top concentration
# Method in brief: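 Cell-based qHTS: luciferase-tagged P. falciparum in erythrocytes (2% hematocrit, 0.05% parasitemia final) incubated with compounds for 96 hours, 37 C, 5% CO2; luciferase detection reagent then added and luminescence measured.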
# % is set by controls: 0 for no effect and ±100 for the full control effect; potency is the fitted concentration of half-maximal effect.
Structure (SMILES),Potency,"activity change, negative = inhibition"
COc1ccc(CC(=O)OC(C)C(=O)c2ccc(C)cc2)cc1 (configuration not stated),"inconclusive: 14.7 µM [inhibitor, single point]",
CCOc1ccc(N2CC(C(=O)Nc3nnc(C4CCCCC4)s3)CC2=O)cc1 (configuration not stated),"inconclusive: 11.7 µM [inhibitor, single point]",
C=C(C)CSc1nncn1/N=C/c1ccc(OC)cc1,,inactive: -0.421%
CCC(C)(C)NC(=O)CN(C(=O)c1csnn1)c1cccc2c1CCCC2,"inconclusive: 0.104 µM [inhibitor, full curve, poor fit]",
N#Cc1c(/N=C/C=C/c2ccccc2)sc2c1CCCC2,,inactive: 32.9%
CCCOc1ccc(CNC(=O)CCC(=O)n2ncc3cc(C)ccc32)cc1,,inactive: 103%
Cc1cc(C)n2nc(CNS(=O)(=O)c3ccc(F)cc3)nc2n1,"inconclusive: 18.5 µM [inhibitor, single point]",
CCc1nccn1CCC(=O)N1CCc2c([nH]c3ccccc23)C1CC(C)C (configuration not stated),"inconclusive: 16.5 µM [inhibitor, single point]",
Clc1nc(Nc2ccccc2)nc(Nc2ccccc2)n1,,inactive: 36.2%
CCc1cccc(OCC(=O)Nc2cc(Cl)ccc2-n2cncn2)c1,"inconclusive: 11.7 µM [inhibitor, partial curve, poor fit]",
CCc1ccc(CN2CCCC(C(=O)N3CCCCC3)C2)cc1 (configuration not stated),,inactive: -1.64%
COc1ccc(S(=O)(=O)N2CCCC(C(F)(F)F)C2)cc1 (configuration not stated),,inactive: 3.84%
CCC(C)(c1nnnn1-c1c(C)cccc1C)N(N=O)c1ccccc1Cl (configuration not stated),"inconclusive: 1.65 µM [inhibitor, full curve, poor fit]",
COc1ccccc1-c1nc(C#N)c(N2CCCCCC2)o1,"inconclusive: 18.5 µM [inhibitor, single point]",
CCCNC(=O)c1ccccc1NC(=O)c1ccc(CSc2ccccc2)cc1,"inconclusive: 6.57 µM [inhibitor, partial curve, poor fit]",
Cc1ccc(S(=O)(=O)/N=C(/c2ccc(F)cc2)N2CCCCC2)cc1,"inconclusive: 16.5 µM [inhibitor, single point]",
COC(=O)c1ccc(CSc2nnc(CNC(=O)c3ccc(OC)cc3)o2)o1,"inconclusive: 1.47 µM [inhibitor, partial curve, poor fit]",
CC(NC(=O)COC(=O)c1ccccc1SCC(=O)N1CCCC1)c1ccccc1 (configuration not stated),,inactive: 2.79%
O=C(C[n+]1cccc(CNC(=O)c2ccc(OC(F)F)cc2)c1)Nc1ccc(F)cc1,active: 0.738 µM,
O=C(N/N=C1\CCCc2ccccc21)c1ccc([N+](=O)[O-])cc1Cl,,inactive: 6.9%
Cc1cc(NC(=O)c2c(-c3c(F)cccc3Cl)noc2C)no1,,inactive: -14.1%
CCn1cnc2cc(NCc3ccccc3Cl)ccc21,active: 1.47 µM,
C/C(=N\NC(=O)Cc1c(C)[nH][nH]c1=O)c1cccc(Br)c1,"inconclusive: 9.28 µM [inhibitor, partial curve, poor fit]",
CN1CCc2c(sc(/N=C/c3cc(Cl)ccc3O)c2C#N)C1,,inactive: -11.7%

# Gathered by group: the compounds so far with four or more nitrogen atoms.
Structure (SMILES),Potency,"activity change, negative = inhibition"
CCOc1ccc(N2CC(C(=O)Nc3nnc(C4CCCCC4)s3)CC2=O)cc1 (configuration not stated),"inconclusive: 11.7 µM [inhibitor, single point]",
C=C(C)CSc1nncn1/N=C/c1ccc(OC)cc1,,inactive: -0.421%
CCC(C)(C)NC(=O)CN(C(=O)c1csnn1)c1cccc2c1CCCC2,"inconclusive: 0.104 µM [inhibitor, full curve, poor fit]",
Cc1cc(C)n2nc(CNS(=O)(=O)c3ccc(F)cc3)nc2n1,"inconclusive: 18.5 µM [inhibitor, single point]",
CCc1nccn1CCC(=O)N1CCc2c([nH]c3ccccc23)C1CC(C)C (configuration not stated),"inconclusive: 16.5 µM [inhibitor, single point]",
Clc1nc(Nc2ccccc2)nc(Nc2ccccc2)n1,,inactive: 36.2%
CCc1cccc(OCC(=O)Nc2cc(Cl)ccc2-n2cncn2)c1,"inconclusive: 11.7 µM [inhibitor, partial curve, poor fit]",
CCC(C)(c1nnnn1-c1c(C)cccc1C)N(N=O)c1ccccc1Cl (configuration not stated),"inconclusive: 1.65 µM [inhibitor, full curve, poor fit]",
C/C(=N\NC(=O)Cc1c(C)[nH][nH]c1=O)c1cccc(Br)c1,"inconclusive: 9.28 µM [inhibitor, partial curve, poor fit]",

# (list continues)

Structure (SMILES),Potency,"activity change, negative = inhibition"
CN(C)Cc1ccccc1Sc1ccccc1Br,"inconclusive: 18.5 µM [inhibitor, single point]",
CCOc1cc(C(=S)N2CCOCC2)ccc1OS(=O)(=O)c1ccc(C)cc1,"inconclusive: 18.5 µM [inhibitor, single point]",
Cc1ccc(CNC(=O)C2CC(c3cccc([N+](=O)[O-])c3)=NO2)o1 (configuration not stated),,inactive: 9.51%
CCCCc1ccc(NC(=O)CN(C)CC(=O)Nc2ccccc2Cl)cc1,"inconclusive: 18.5 µM [inhibitor, single point]",
O=C(N/N=C/c1c[nH]c2ccccc12)c1cc(Cl)ccc1O,,inactive: 1.04%
COc1cc2[nH]c(C(=O)N(C)Cc3ccccc3)cc2c(OC)c1OC,"inconclusive: 10.4 µM [inhibitor, single point]",
Cc1onc(-c2ccccc2)c1C(=O)NCCc1ccc(S(N)(=O)=O)cc1,,inactive: -1.51%
CCOC(=O)CCSCC(=O)N1N=C(c2cccs2)CC1c1ccc(C)cc1 (configuration not stated),"inconclusive: 10.4 µM [inhibitor, single point]",
Cn1ncc(Cl)c1C(=O)NC1C2CC3CC(C2)CC1C3 (configuration not stated),"inconclusive: 4.15 µM [inhibitor, partial curve, poor fit]",
Nc1cc(C(F)(F)F)ccc1Nc1ccccc1,,inactive: 0%
CCOC(=O)Nc1ccc2c(CN3C(=O)NC4(CCCC4)C3=O)cc(=O)oc2c1,"inconclusive: 13.1 µM [inhibitor, single point]",
CCCCn1c(N)c(N(CCOC)C(=O)CSc2ccccc2C)c(=O)[nH]c1=O,"inconclusive: 9.28 µM [inhibitor, partial curve, poor fit]",
CC1=NNC(=O)/C1=C\c1cn(-c2ccccc2)nc1-c1cccs1,active: 8.28 µM,
Cc1nn(-c2ccccc2)c2sc(C(=O)N(CC(=O)NC3CCCC3)Cc3ccco3)cc12,"inconclusive: 13.1 µM [inhibitor, partial curve, poor fit]",
O=C(O)CCC(=O)CCC(=O)c1ccccc1,"inconclusive: 3.29 µM [inhibitor, full curve, poor fit]",
CCOc1cc(/C=N/NC(=O)CSc2nncn2C)ccc1OCc1ccccc1,"inconclusive: 0.0029 µM [inhibitor, full curve, poor fit]",
O=C(O)CC1S/C(=N/N=C/c2ccc([N+](=O)[O-])cc2)N(c2ccc(O)cc2)C1=O (configuration not stated),,inactive: 19.6%
CCn1cc(C(=O)NC2CC(C)(C)Cc3c2cnn3-c2cccc(F)c2)cn1 (configuration not stated),"inconclusive: 18.5 µM [inhibitor, single point]",
O=C(Cc1nc2ccccc2[nH]1)NCc1ccco1,,inactive: -13.3%
COc1ccc(N(CC(=O)NCc2ccco2)C(=O)CNS(=O)(=O)c2ccc(Cl)cc2)cc1,active: 2.08 µM,
c1coc(-c2nnc(-c3ccco3)nn2)c1,active: 6.57 µM,
CC(=O)c1cc(-c2ccccc2)[nH]c1N1CCOCC1,"inconclusive: 13.1 µM [inhibitor, partial curve, poor fit]",
O=c1[nH]c2ccc(NC(=S)Nc3ccccc3)cc2[nH]1,"inconclusive: 18.5 µM [inhibitor, single point]",

# Reference: PubChem BioAssay AID504834 (National Center for Advancing Translational Sciences (NCATS), 2011)
